# No constants are given. Whether binding was seen depends on the method and setting. In cells and extracts the contact can be indirect. Some binding calls cover weakened binding; strength is not graded here.
# Amino acid sequences for entries named in this document (tags omitted). Residues count along the entry.
# UniProt Q14126, residues 50-1118: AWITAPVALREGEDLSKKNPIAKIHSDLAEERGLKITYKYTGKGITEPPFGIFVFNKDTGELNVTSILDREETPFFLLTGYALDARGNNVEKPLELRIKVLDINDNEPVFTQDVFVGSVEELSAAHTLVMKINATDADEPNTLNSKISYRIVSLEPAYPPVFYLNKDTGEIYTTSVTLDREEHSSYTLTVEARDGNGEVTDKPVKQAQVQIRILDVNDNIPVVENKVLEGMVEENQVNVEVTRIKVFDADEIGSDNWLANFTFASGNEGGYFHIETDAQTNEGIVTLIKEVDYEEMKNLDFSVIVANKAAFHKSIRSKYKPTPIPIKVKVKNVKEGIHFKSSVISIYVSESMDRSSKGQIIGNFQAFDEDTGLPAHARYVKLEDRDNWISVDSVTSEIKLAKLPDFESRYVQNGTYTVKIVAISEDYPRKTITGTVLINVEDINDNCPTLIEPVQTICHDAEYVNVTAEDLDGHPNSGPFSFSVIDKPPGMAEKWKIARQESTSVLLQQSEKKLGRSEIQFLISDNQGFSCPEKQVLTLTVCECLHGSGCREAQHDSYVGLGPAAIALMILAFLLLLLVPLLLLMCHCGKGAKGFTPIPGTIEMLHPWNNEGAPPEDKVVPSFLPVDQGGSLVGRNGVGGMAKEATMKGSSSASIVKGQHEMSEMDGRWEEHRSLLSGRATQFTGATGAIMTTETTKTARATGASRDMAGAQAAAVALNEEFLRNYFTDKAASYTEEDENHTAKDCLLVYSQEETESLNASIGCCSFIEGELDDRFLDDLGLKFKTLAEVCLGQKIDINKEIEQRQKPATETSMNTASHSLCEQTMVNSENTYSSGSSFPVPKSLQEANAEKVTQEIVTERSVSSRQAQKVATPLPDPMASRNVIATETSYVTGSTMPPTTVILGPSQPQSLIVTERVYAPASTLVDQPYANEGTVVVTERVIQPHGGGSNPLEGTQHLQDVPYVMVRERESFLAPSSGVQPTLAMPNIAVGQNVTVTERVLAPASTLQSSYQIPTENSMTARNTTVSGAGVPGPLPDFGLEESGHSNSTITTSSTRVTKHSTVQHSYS
# Biological target: T1, desmoglein 3 (human (endogenous in HaCaT)) (UniProt P32926)
# T1 sequence: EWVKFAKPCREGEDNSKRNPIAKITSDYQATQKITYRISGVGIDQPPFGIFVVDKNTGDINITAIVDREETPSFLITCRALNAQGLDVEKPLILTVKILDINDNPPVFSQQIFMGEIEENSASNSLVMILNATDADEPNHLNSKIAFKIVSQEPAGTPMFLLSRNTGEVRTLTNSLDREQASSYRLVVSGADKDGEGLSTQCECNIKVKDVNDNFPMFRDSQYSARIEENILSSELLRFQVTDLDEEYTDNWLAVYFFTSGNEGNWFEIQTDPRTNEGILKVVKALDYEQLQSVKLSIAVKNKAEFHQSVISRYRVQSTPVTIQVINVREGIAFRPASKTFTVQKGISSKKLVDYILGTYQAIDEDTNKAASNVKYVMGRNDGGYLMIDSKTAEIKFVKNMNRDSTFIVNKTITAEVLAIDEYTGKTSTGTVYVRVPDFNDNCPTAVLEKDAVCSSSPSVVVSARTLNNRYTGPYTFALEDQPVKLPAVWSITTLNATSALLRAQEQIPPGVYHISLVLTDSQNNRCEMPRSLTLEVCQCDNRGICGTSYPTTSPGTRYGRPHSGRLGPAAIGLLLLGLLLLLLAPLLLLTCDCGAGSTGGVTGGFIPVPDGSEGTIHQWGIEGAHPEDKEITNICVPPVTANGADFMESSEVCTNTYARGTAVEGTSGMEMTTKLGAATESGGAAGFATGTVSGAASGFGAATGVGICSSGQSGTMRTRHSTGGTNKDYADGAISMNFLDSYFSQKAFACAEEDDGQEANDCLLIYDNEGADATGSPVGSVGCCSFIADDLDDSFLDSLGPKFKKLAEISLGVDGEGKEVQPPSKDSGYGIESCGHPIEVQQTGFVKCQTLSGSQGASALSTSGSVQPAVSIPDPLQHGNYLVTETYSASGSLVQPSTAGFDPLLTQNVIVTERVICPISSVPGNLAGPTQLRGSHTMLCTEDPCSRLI
# Assay: co-IP
substance,measurement,value
desmoglein 2 (from UniProt Q14126 50-1118),binding,binds
